## Assay results

The results are deposited in PubChem (AID1159506; NCATS, 2015).

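Genome-wide siRNA knockdown in TC32 Ewing sarcoma cells, comparing luciferase light from an NR0B1-promoter reporter with a CMV-promoter reporter 48 hours after transfection.
Each siRNA was applied at 20 nM.
A z-score of the log NR0B1-over-CMV signal, less the median of siRNAs with the same seed; more negative means a stronger specific loss of the NR0B1 reporter.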

The strongest results of the screen are mostly left out here.
Sequences are the guide (antisense) strand, without overhang.

| # | siRNA | target gene | seed-corrected z-score |
|---|---|---|---|
| 1 | `AUUGAGAUCAGUGACAUCC` | MYOCD | -0.8475 |
| 2 | `AUCGGUUAAAUAUAGCUGC` | STAB2 | -0.2916 |
| 3 | `UAAUUUUAUCAGAAUCCAG` | LYPLA2P2 | 0.9073 |
| 4 | `UGUAUAGCAGCUGUAGUUG` | RBMS1 | 0.4552 |
| 5 | `ACUGGUAUAACUGAGAGAG` | CENPI | 0.1398 |
| 6 | `UACUCUCUCUUGAUCUCUC` | MLST8 | -0.05948 |
| 7 | `UUGUGCUCUAGAUUGAUAC` | MYOZ2 | -0.3956 |
| 8 | `UCCUCGCUCACAAAGUACC` | RPS6KL1 | -0.05648 |
| 9 | `AUGGGAGUCCAAUCAGUCC` | TNFRSF11A | 0.1081 |
| 10 | `AUAAGUUCUCCACUCAUCC` | SH3D19 | 0.6724 |
| 11 | `UGAGAAUUCAUUGUCCCGG` | KCNK13 | -0.2123 |
| 12 | `UAUUCUUGGGCCACCACCU` | RPL31P45 | 1 |
| 13 | `AUCUCCGAAAAUUAAAUGC` | NSMCE3 | -0.325 |
| 14 | `UGACAUCUAAUGCUGGUGC` | ESAM | 0.9697 |
| 15 | `UCUUUAAAAGCUUCUCCCG` | TRIM53BP | -0.01281 |
| 16 | `UUCGCUUUAUGAUUUUGGG` | ZNF343 | -0.8605 |
| 17 | `UACGGUUACAUGGUCAAAC` | DIS3L | -0.4059 |
| 18 | `UUGCGGAUGUCUCUGGUCU` | CYB5D1 | 0.09535 |
| 19 | `AGUGAAUCCGGCAAAGUCC` | OCA2 | -0.1452 |
| 20 | `UUUGGGCUGAUUACAUGCU` | GMEB2 | 0.3262 |
| 21 | `UACGAAAAACUCCCGGCCG` | DDAH2 | -0.2587 |
| 22 | `AACGGUUUUGCCGAGUUGG` | NDUFS3 | -0.2909 |
| 23 | `AACUGGAGGAUUUAGACUC` | DUSP27 | -0.2241 |
| 24 | `UGCUCAUUCAGGUGGAACC` | CAPNS1 | -0.5876 |
| 25 | `UUUGUACUCAGGCAAGUUU` | KCNH3 | 0.9786 |
| 26 | `UUCUUGGUAAGGUCCAGUU` | HIRIP3 | -0.1629 |
| 27 | `AUGCGCAACAUUCUCAUCC` | ITGA4 | 0.4052 |
| 28 | `UCAGGGUAUAGAUUAGUGG` | OR4A15 | 0.121 |
| 29 | `UCCAGGCCCUUGUUAAAGC` | CRELD1 | -0.02018 |
| 30 | `UAUCUAAUUCCAGAGCUGG` | NRBP1 | -0.05529 |
| 31 | `UCAACAACCUCGGACAGGC` | SFT2D2 | 0.5709 |
| 32 | `UGAGAGUCCAGUGUCAAAC` | CRYAB | -1.044 |
| 33 | `AUAGUGUUACCUCUUAAUU` | RPEL1 | 1.139 |
| 34 | `UUGACUACCGAAGGUGUCU` | FGF18 | 0.9094 |
| 35 | `UUCUUGCCCAGGUCAUAGC` | SDC4 | -1.483 |
| 36 | `UUCUUUUUCGCCUGCAGGG` | PRRX1 | -0.3296 |
| 37 | `UUCGGGAGAAAAAGUAUUC` | PSMA5 | 0.1422 |
| 38 | `AUGGAAAUGAGAAAUCAGG` | MGAT4EP | 1.911 |
| 39 | `UAAGCUCUUCGUCACUAGC` | DNAJC18 | 0.8426 |
| 40 | `UAAUAGAGCCCUGUUGUCG` | RBM5 | 0.217 |
| 41 | `UAACAUGCUACUUUGUCCA` | KLF11 | 0.5789 |
| 42 | `UUUAGACUGAACACGUUCC` | FAM111A | -0.8795 |
| 43 | `UUAGAGAUUGGGACCAUUC` | NOL4 | 1.48 |
| 44 | `UUUGAGUUUGAGCUGAGGC` | INO80B | 2.031 |
| 45 | `UGAUGUGACAAGUUUCAGC` | TXNDC8 | -0.9697 |
| 46 | `AAACAGAUAAUUCAAUCAG` | KRTAP19-3 | -0.2296 |
| 47 | `UUUGGUUCUGUUCCGACAG` | CCDC64 | 0.2017 |
| 48 | `UGGGUUCUUAGCUUACAGC` | SARS2 | 0.7659 |
| 49 | `AACGUGUCAGUCGAAAUGG` | MCHR2 | -0.1638 |
| 50 | `UAAACAAAACGCGACUCUC` | FAM43A | 0.1311 |
| 51 | `UCUGUUGUAGCUUCAGAGG` | IRF1 | 0.2959 |
| 52 | `UUUCAUAAACUUGUAAUUC` | CDRT15L2 | 1.056 |
| 53 | `AUGUUGAUCAAGAAAGAUG` | CALR | 1.04 |
| 54 | `UCUUGUUUCGGCACUUUGC` | ATF3 | 1.097 |
| 55 | `UCUUCGACUCUGAUGGUCC` | FLNB | 0.1813 |
| 56 | `UUCUGAUUCAGUCUGAUGU` | CCDC96 | -0.6735 |
| 57 | `UUGUAGGUCACUAAUUGCC` | SRP72 | 1.206 |
| 58 | `AUAAAUUCCAAAUAGAACC` | HNRNPA1 | 0.3224 |
| 59 | `UCACAUAAACCAGAAGUGC` | FCRL6 | 0.109 |
| 60 | `UAUAAGCAAAGACUUUUAC` | NCOR1P2 | -0.07212 |
| 61 | `UUGUACUUGACUAGAAUGC` | FLNA | 0.3622 |
| 62 | `AAACUGGUAAAUAUACUCC` | NLRP14 | 0.1511 |
| 63 | `UAAUCCACUAGAUGCACUG` | GABRR3 | 0.9704 |
| 64 | `UCUUAUGUCUGCACAAGCC` | OMA1 | -0.23 |
| 65 | `AAAUGGAUUCCUAUCUAUC` | TBX18 | 0.8624 |
| 66 | `UUUUAGAUAGGUCUCUACC` | GTPBP8 | -0.7919 |
| 67 | `UCAUUAUCCACUUUAGCGC` | ABLIM3 | -0.01437 |
| 68 | `UCAACUACUUUGGUAAGGC` | TRIO | -0.387 |
| 69 | `UACCCAGUCAUCCUCUUCC` | CIAO1 | 1.074 |
| 70 | `UCCGAUUCCGCAUCUGUUG` | NAP1L4 | 0.3305 |
| 71 | `UCCCUGAUAAAAUCAGUAG` | TMEM27 | -0.2695 |
| 72 | `UAAGGUUGAGGAAUCAUUG` | ZNF891 | 0.4137 |
| 73 | `UUUCUUCUCCUGCUUAUCU` | PSME2 | 0.5951 |
| 74 | `AUAGGAAUGUGAUCAGUAG` | GFPT1 | 0.1355 |
| 75 | `UUGGGUUCCUGGUAUCUCC` | SLC7A13 | -0.2832 |
| 76 | `AGCUUGCUAACUUCUUUGC` | FENDRR | -0.1703 |
| 77 | `UAGCUUGCUCUGAAUAUAG` | STEAP1 | -0.6444 |
| 78 | `UCACUAAAAUUGGUCACCG` | GPATCH2L | -0.2512 |
| 79 | `AGAGUUCUGGGUUUAUUGC` | KIF2C | -0.107 |
| 80 | `AUAUCGAUCCGAUAUUGUC` | CEBPZ | 0.1692 |
| 81 | `UCGGUGUACAAGAUAGGCC` | PHACTR2 | -1.131 |

Some entries from above, unchanged:

* UAAUUUUAUCAGAAUCCAG against LYPLA2P2 : seed-corrected z-score 0.9073
* UAUUCUUGGGCCACCACCU against RPL31P45 : seed-corrected z-score 1
* UUUCUUCUCCUGCUUAUCU against PSME2 : seed-corrected z-score 0.5951
* UAAGGUUGAGGAAUCAUUG against ZNF891 : seed-corrected z-score 0.4137
* UACGGUUACAUGGUCAAAC against DIS3L : seed-corrected z-score -0.4059
* AACGGUUUUGCCGAGUUGG against NDUFS3 : seed-corrected z-score -0.2909
* UGACAUCUAAUGCUGGUGC against ESAM : seed-corrected z-score 0.9697
* UCUUCGACUCUGAUGGUCC against FLNB : seed-corrected z-score 0.1813